{"source": "the supplement of paper PMC8728848", "test_in_all_cases": "glycan array binding signal (z-score within array); higher = stronger binding", "conditions_in_all_cases": "glycan notation: IUPAC condensed, linker removed", "key": {"[1]": {"target": "Fuc(a1-2)Gal(b1-4)GlcNAc(b1-3)Gal(b1-4)GlcNAc(b1-3)Gal(b1-4)GlcNAc", "outline": "(§1)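 The binding signal is a Z-score computed within each array and averaged over linkers. Arrays of the same protein sequence at different concentrations or buffers were also averaged together. Data originate from 3228 arrays in the Consortium for Functional Glycomics database, kept only where the protein sequence was available.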"}, "[2]": {"target": "Fuc(a1-2)Gal(b1-4)GlcNAc(b1-3)GalNAc", "outline": "as §1"}, "[3]": {"target": "Fuc(a1-2)Gal(b1-4)GlcNAc(b1-3)[Fuc(a1-2)Gal(b1-4)GlcNAc(b1-6)]GalNAc", "outline": "as §1"}, "[4]": {"target": "Fuc(a1-2)Gal(b1-4)GlcNAc(b1-3)[Fuc(a1-3)[Gal(b1-4)]GlcNAc(b1-6)]Gal(b1-4)Glc", "outline": "as §1"}, "[5]": {"target": "Fuc(a1-2)Gal(b1-4)GlcNAc(b1-6)GalNAc", "outline": "as §1"}, "[6]": {"target": "Fuc(a1-2)Gal(b1-4)GlcNAc6S", "outline": "as §1"}, "[7]": {"target": "Fuc(a1-2)Gal(b1-4)[Fuc(a1-3)]GlcNAc", "outline": "as §1"}, "[8]": {"target": "Fuc(a1-2)Gal(b1-4)[Fuc(a1-3)]GlcNAc(b1-2)Man(a1-3)[Fuc(a1-2)Gal(b1-4)[Fuc(a1-3)]GlcNAc(b1-2)Man(a1-6)]Man(b1-4)GlcNAc(b1-4)[Fuc(a1-6)]GlcNAc", "outline": "as §1"}, "[9]": {"target": "Fuc(a1-2)Gal(b1-4)[Fuc(a1-3)]GlcNAc(b1-2)[Fuc(a1-2)Gal(b1-4)[Fuc(a1-3)]GlcNAc(b1-4)]Man(a1-3)[Fuc(a1-2)Gal(b1-4)[Fuc(a1-3)]GlcNAc(b1-2)Man(a1-6)]Man(b1-4)GlcNAc(b1-4)GlcNAc", "outline": "as §1"}, "[10]": {"target": "Fuc(a1-2)Gal(b1-4)[Fuc(a1-3)]GlcNAc(b1-3)Gal(b1-4)[Fuc(a1-3)]GlcNAc", "outline": "as §1"}, "[11]": {"target": "Fuc(a1-2)Gal(b1-4)[Fuc(a1-3)]GlcNAc(b1-3)Gal(b1-4)[Fuc(a1-3)]GlcNAc(b1-3)Gal(b1-4)[Fuc(a1-3)]GlcNAc", "outline": "as §1"}, "[12]": {"target": "Fuc(a1-2)Gal(b1-4)[Fuc(a1-3)]GlcNAc(b1-3)GalNAc", "outline": "as §1"}, "[13]": {"target": "Fuc(a1-2)Gal(b1-4)[Fuc(a1-3)]GlcNAc(b1-3)[Neu5Ac(a2-6)Gal(b1-4)GlcNAc(b1-6)]Gal(b1-4)Glc", "outline": "as §1"}, "[14]": {"target": "Fuc(a1-2)Gal3S(b1-4)GlcNAc", "outline": "as §1"}, "[15]": {"target": "Fuc(a1-2)Gal6S(b1-3)GlcNAc", "outline": "as §1"}, "[16]": {"target": "Fuc(a1-2)Gal6S(b1-3)GlcNAc6S", "outline": "as §1"}, "[17]": {"target": "Fuc(a1-2)Gal6S(b1-4)Glc", "outline": "as §1"}, "[18]": {"target": "Fuc(a1-2)Gal6S(b1-4)Glc6S", "outline": "as §1"}, "[19]": {"target": "Fuc(a1-2)[Gal(a1-3)]Gal", "outline": "as §1"}, "[20]": {"target": "Fuc(a1-2)[Gal(a1-3)]Gal(b1-3)GalNAc", "outline": "as §1"}, "[21]": {"target": "Fuc(a1-2)[Gal(a1-3)]Gal(b1-3)GalNAc(b1-3)Gal(a1-4)Gal(b1-4)Glc", "outline": "as §1"}, "[22]": {"target": "Fuc(a1-2)[Gal(a1-3)]Gal(b1-3)GlcNAc", "outline": "as §1"}, "[23]": {"target": "Fuc(a1-2)[Gal(a1-3)]Gal(b1-3)GlcNAc(b1-2)Man(a1-3)[Fuc(a1-2)[Gal(a1-3)]Gal(b1-3)GlcNAc(b1-2)Man(a1-6)]Man(b1-4)GlcNAc(b1-4)GlcNAc", "outline": "as §1"}, "[24]": {"target": "Fuc(a1-2)[Gal(a1-3)]Gal(b1-3)GlcNAc(b1-2)Man(a1-3)[Fuc(a1-2)[Gal(a1-3)]Gal(b1-3)GlcNAc(b1-2)Man(a1-6)]Man(b1-4)GlcNAc(b1-4)[Fuc(a1-6)]GlcNAc", "outline": "as §1"}, "[25]": {"target": "Fuc(a1-2)[Gal(a1-3)]Gal(b1-3)GlcNAc(b1-3)GalNAc", "outline": "as §1"}, "[26]": {"target": "Fuc(a1-2)[Gal(a1-3)]Gal(b1-3)GlcNAc(b1-6)GalNAc", "outline": "as §1"}, "[27]": {"target": "Fuc(a1-2)[Gal(a1-3)]Gal(b1-4)Glc", "outline": "as §1"}, "[28]": {"target": "Fuc(a1-2)[Gal(a1-3)]Gal(b1-4)GlcNAc", "outline": "as §1"}, "[29]": {"target": "Fuc(a1-2)[Gal(a1-3)]Gal(b1-4)GlcNAc(b1-2)Man", "outline": "as §1"}, "[30]": {"target": "Fuc(a1-2)[Gal(a1-3)]Gal(b1-4)GlcNAc(b1-2)Man(a1-3)[Fuc(a1-2)[Gal(a1-3)]Gal(b1-4)GlcNAc(b1-2)Man(a1-6)]Man(b1-4)GlcNAc(b1-4)GlcNAc", "outline": "as §1"}}, "note": "The list shows a part of the results.", "data": [{"binder": "Epf (Streptococcus pyogenes) (protein) GDHGPEFNGVMVVKAAEAEELPDDLMNFKGTWEVSADGSSGRFFSKGATDSYVFHLIPAKDVKKPGWREHNEVKDSYIKIDKQSIAARYKTSTTAPYSVAFKVNTKSLIKDHDYKITFEQGQIASGITVDYRIGSAFNKTTDDSFKISDESKYASNVKIEGEEQGFKQREQGDKTISFRTLKEGPMSLVLLSKVEKKPQGDLDVEFKNLKIIDVTNPSQLDKGVAYVGNKNVQLTLKSDDGRTNFEGDEISLFNSRGELLQTVTVTKDQQNPISITLSEDQAKSLKNKEKLKVSIKQKQSKKTSKDFFFEVGIDPKVEAKQKEKLLELDKVKKQIEDSINGDAWLPEKPVDLQGDHGLSAWSHPQFEK", "values": [{"measurement": "glycan array binding signal (z-score)", "setting": "[1]", "result": 0.943}, {"measurement": "glycan array binding signal (z-score)", "setting": "[2]", "result": -1.19}, {"measurement": "glycan array binding signal (z-score)", "setting": "[3]", "result": 0.153}, {"measurement": "glycan array binding signal (z-score)", "setting": "[4]", "result": 2.21}, {"measurement": "glycan array binding signal (z-score)", "setting": "[5]", "result": -0.587}, {"measurement": "glycan array binding signal (z-score)", "setting": "[6]", "result": 0.501}, {"measurement": "glycan array binding signal (z-score)", "setting": "[7]", "result": -0.853}, {"measurement": "glycan array binding signal (z-score)", "setting": "[8]", "result": -1.29}, {"measurement": "glycan array binding signal (z-score)", "setting": "[9]", "result": 0.228}, {"measurement": "glycan array binding signal (z-score)", "setting": "[10]", "result": -0.184}, {"measurement": "glycan array binding signal (z-score)", "setting": "[11]", "result": 0.128}, {"measurement": "glycan array binding signal (z-score)", "setting": "[12]", "result": 0.994}, {"measurement": "glycan array binding signal (z-score)", "setting": "[13]", "result": -0.99}, {"measurement": "glycan array binding signal (z-score)", "setting": "[14]", "result": 0.41}, {"measurement": "glycan array binding signal (z-score)", "setting": "[15]", "result": 0.24}, {"measurement": "glycan array binding signal (z-score)", "setting": "[16]", "result": 0.499}, {"measurement": "glycan array binding signal (z-score)", "setting": "[17]", "result": 0.606}, {"measurement": "glycan array binding signal (z-score)", "setting": "[18]", "result": 0.2}, {"measurement": "glycan array binding signal (z-score)", "setting": "[19]", "result": 0.412}, {"measurement": "glycan array binding signal (z-score)", "setting": "[20]", "result": 0.862}, {"measurement": "glycan array binding signal (z-score)", "setting": "[21]", "result": -0.654}, {"measurement": "glycan array binding signal (z-score)", "setting": "[22]", "result": -0.189}, {"measurement": "glycan array binding signal (z-score)", "setting": "[23]", "result": -0.435}, {"measurement": "glycan array binding signal (z-score)", "setting": "[24]", "result": 1.45}, {"measurement": "glycan array binding signal (z-score)", "setting": "[25]", "result": -1.16}, {"measurement": "glycan array binding signal (z-score)", "setting": "[26]", "result": -0.371}, {"measurement": "glycan array binding signal (z-score)", "setting": "[27]", "result": -0.394}, {"measurement": "glycan array binding signal (z-score)", "setting": "[28]", "result": -0.265}, {"measurement": "glycan array binding signal (z-score)", "setting": "[29]", "result": 0.986}, {"measurement": "glycan array binding signal (z-score)", "setting": "[30]", "result": 1.75}]}]}
